Results taken from paper PMC6874179, “Development of Macrocycle Kinase Inhibitors for ALK2 Using Fibrodysplasia Ossificans Progressiva‐Derived Endothelial Cells” (JBMR Plus, 2019).
No constants are given. Whether binding was seen depends on the method and setting. Some binding calls cover weakened binding; strength is not graded here.

Target: T1, ALK2 (BMP type I receptor, activin A type I receptor) on murine 2H11 endothelial cells (mouse (endogenous in 2H11)) (UniProt P37172)
T1 sequence: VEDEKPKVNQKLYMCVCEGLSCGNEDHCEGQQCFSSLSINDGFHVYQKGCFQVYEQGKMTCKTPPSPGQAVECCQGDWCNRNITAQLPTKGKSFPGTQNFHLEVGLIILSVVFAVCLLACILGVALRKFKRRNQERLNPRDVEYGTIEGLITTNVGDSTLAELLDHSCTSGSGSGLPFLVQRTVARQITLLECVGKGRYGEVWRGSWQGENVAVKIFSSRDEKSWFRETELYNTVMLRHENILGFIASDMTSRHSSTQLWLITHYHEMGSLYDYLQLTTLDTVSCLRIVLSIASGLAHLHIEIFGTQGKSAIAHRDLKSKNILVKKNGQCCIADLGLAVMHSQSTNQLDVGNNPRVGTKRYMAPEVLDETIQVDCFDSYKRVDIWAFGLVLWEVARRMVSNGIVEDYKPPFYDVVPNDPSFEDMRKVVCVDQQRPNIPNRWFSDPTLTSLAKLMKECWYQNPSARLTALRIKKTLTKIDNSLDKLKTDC
Assay: radioligand binding; ligand affinity labeling of cell surface receptors with radiolabeled BMP-9 on murine 2H11 endothelial cells; conditions not shown; only the binder purified

binding: binds
B1: BMP-9 (ligand, UniProt Q9UK05 320-429)
chain: SAGAGSHCQKTSLRVNFEDIGWDSWIIAPKEYEAYECKGGCFFPLADDVTPTKHAIVQTLVHLKFPTKVGKACCVPTKLSPISVLYKDDMGVPTLKYHYEGMSVAECGCR
modifications: radiolabeled (isotope and residues not stated)
